Test results published in article PMC8005928.
Results are given in words; binding and its absence hold for the method and conditions named. In cells and extracts the contact can be indirect. Some entries that bind do so weakly or less than the wild type.

By UniProt entry, the sequences of proteins in these tests, tags left out.
UniProt P15311: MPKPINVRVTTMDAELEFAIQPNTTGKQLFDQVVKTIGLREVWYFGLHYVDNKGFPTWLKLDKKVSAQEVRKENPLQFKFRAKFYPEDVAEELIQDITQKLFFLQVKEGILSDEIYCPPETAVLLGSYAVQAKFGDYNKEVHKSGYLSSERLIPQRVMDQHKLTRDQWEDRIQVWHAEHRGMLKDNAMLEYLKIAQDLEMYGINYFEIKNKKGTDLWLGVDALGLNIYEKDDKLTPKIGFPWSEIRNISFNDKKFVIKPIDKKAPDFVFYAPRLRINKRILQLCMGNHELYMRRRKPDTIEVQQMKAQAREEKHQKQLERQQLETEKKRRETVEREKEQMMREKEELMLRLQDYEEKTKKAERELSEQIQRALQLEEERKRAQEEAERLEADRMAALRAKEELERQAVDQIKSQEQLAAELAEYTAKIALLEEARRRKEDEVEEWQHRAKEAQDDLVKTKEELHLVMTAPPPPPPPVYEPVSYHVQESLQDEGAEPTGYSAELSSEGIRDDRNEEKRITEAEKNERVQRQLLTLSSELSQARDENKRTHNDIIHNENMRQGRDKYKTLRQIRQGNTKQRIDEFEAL
UniProt P26040: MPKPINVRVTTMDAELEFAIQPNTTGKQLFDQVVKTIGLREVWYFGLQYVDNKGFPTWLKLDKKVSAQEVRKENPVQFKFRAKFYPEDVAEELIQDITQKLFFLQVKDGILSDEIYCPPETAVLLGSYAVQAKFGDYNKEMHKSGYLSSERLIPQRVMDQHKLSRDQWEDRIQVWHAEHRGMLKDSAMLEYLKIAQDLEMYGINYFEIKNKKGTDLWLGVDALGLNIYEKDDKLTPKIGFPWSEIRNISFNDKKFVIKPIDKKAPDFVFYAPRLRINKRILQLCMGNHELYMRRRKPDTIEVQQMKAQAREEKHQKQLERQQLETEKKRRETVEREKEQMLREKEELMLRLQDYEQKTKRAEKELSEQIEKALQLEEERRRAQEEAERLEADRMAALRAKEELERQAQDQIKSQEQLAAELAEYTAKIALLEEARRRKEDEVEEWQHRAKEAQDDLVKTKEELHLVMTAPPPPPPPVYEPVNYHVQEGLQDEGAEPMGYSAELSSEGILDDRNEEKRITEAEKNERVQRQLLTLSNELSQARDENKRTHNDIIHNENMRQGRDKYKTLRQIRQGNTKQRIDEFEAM

Assays:
[1] = target: T1, ARID3A (human (endogenous in Raji, Ramos, CL-01, Daudi)) (UniProt Q99856); assay: co-IP; lipid rafts of unstimulated B-cell lines; anti-ARID3A IP, anti-EZRIN Western blot
T1 sequence: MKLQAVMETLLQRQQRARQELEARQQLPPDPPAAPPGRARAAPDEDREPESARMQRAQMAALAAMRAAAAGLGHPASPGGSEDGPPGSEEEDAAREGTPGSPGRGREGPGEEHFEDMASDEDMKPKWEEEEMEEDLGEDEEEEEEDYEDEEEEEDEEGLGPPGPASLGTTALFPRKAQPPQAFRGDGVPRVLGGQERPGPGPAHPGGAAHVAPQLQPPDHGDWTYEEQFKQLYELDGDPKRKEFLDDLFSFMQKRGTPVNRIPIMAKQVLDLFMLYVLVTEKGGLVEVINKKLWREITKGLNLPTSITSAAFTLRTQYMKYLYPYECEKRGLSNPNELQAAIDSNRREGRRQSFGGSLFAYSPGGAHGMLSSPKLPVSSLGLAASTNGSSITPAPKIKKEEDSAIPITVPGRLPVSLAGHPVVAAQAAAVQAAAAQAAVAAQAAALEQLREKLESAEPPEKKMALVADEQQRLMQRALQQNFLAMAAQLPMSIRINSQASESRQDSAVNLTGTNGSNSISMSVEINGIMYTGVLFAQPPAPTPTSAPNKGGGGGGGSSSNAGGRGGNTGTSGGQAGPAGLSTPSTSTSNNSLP

[2] = target: T1, ARID3A (human (endogenous in Raji, Ramos, CL-01, Daudi)); assay: co-IP; lipid rafts (sucrose gradient, solubilised in RIPA with 500 mM NaCl) of Raji, Ramos, CL-01 and Daudi cells stimulated for 5 min with anti-IgM, anti-CD19 or both; anti-ARID3A IP, anti-EZRIN Western blot
[3] = target: T1, ARID3A (human (endogenous in Raji, Ramos, CL-01, Daudi)); assay: co-IP; whole-cell lysates of Raji, Ramos, CL-01 and Daudi cells, stimulated or unstimulated; anti-ARID3A IP, anti-EZRIN Western blot
[4] = target: T2, ARID3A (murine follicular B cells) (mouse (endogenous in follicular B cells)) (UniProt Q62431); assay: co-IP; whole-cell lysates of normal murine follicular B cells stimulated with α-IgM, α-CD19 or α-IgM+α-CD19; anti-ARID3A IP, blots with anti-EZRIN or anti-αβ-actin
T2 sequence: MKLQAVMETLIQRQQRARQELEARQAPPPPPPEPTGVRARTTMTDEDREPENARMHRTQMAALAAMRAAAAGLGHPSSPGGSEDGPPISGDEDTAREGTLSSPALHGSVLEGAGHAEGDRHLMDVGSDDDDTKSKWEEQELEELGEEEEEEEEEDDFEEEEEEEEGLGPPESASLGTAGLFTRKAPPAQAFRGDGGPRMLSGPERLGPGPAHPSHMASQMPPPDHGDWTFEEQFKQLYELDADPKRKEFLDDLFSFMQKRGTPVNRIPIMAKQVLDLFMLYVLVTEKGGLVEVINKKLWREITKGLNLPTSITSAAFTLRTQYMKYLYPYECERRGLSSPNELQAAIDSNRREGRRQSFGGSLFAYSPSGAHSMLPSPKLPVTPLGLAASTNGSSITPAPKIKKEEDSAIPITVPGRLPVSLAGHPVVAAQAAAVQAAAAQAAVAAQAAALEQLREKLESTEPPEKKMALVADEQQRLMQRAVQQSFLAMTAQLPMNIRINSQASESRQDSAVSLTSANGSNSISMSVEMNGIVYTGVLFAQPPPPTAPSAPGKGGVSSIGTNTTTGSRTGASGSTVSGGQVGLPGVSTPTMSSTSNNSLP

| Substance | binding [1] | binding [2] | binding [3] | binding [4] |
| --- | --- | --- | --- | --- |
| EZRIN (from UniProt P15311 1-586) | no binding (condition: unstimulated cells) | binds | no binding (condition: in whole-cell lysates) | – |
| EZRIN (murine follicular B cells) (from UniProt P26040 1-586) | – | – | – | binds |
